Measurements: article doi:10.1101/2024.11.07.622424
These are yes or no findings as the source states them, for the method shown. In cells and extracts the contact can be indirect. Some entries that bind do so weakly or less than the wild type. For some of these results: Sequences can lack the tags named with a protein. One block for each molecule: values may come before it.

Chains of the proteins cited; added tags and fusions are not shown. Residues count along the entry.
UniProt P25490, whole entry: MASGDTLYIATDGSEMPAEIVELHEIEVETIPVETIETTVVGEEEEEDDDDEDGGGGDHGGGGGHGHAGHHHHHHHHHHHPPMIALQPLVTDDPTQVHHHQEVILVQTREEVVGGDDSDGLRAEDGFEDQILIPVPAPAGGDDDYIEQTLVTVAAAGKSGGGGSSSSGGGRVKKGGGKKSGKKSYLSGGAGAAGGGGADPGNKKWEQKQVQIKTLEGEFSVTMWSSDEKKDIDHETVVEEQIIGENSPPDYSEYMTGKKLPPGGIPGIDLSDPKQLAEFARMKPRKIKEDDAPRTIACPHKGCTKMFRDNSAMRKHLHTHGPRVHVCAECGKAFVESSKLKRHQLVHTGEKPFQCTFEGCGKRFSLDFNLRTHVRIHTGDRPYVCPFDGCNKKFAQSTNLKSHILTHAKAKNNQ
UniProt P25490, 1-320: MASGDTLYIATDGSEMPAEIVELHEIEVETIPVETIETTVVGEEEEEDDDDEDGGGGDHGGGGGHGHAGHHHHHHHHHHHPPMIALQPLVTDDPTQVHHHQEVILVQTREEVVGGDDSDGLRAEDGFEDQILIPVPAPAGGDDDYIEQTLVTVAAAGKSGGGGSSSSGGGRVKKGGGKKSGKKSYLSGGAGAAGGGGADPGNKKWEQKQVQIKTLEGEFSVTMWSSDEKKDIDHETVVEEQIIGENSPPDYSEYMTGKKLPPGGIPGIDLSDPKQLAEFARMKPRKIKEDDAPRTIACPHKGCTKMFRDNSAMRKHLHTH
UniProt P25490, 321-414: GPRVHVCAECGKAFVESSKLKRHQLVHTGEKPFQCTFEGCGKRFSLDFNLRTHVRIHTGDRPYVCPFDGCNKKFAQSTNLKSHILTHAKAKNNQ

How the values were obtained:
Experiment in all cases: co-IP
[1] = target: T1, NUSAP1^NTD (Flag-tagged, amino acids 1–158) (UniProt Q9BXS6)
T1 sequence: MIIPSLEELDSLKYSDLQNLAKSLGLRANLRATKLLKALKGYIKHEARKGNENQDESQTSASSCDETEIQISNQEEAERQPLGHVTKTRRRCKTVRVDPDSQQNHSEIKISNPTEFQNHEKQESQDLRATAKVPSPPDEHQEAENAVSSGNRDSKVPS

[2] = target: T2, NUSAP1^CTD (Flag-tagged, amino acids 159–441) (UniProt Q9BXS6)
T2 sequence: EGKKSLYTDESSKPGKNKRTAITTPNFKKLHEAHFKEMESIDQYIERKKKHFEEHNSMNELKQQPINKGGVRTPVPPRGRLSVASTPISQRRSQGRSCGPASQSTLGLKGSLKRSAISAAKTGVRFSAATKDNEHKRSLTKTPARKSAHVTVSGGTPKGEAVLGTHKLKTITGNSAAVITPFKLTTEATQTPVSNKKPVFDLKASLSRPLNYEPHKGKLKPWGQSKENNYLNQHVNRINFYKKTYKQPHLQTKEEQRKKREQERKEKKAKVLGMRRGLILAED

Flag-NUSAP1 = target: T3, Flag-NUSAP1 (UniProt Q9BXS6)
T3 sequence: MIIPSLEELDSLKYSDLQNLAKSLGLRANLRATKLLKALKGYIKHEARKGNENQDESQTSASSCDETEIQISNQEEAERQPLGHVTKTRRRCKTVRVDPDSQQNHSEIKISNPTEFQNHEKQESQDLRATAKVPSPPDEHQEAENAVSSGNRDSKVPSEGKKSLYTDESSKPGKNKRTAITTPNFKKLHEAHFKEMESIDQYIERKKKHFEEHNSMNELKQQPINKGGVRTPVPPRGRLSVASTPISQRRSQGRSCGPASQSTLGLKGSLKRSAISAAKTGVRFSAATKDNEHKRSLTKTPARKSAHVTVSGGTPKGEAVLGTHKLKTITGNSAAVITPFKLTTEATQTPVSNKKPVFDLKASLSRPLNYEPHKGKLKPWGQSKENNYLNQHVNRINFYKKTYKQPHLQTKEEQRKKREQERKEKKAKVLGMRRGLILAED

[3] = target: T4, nucleolar and spindle-associated protein 1 (NUSAP1), endogenous (human (endogenous in THP-1)) (UniProt Q9BXS6)
T4 sequence: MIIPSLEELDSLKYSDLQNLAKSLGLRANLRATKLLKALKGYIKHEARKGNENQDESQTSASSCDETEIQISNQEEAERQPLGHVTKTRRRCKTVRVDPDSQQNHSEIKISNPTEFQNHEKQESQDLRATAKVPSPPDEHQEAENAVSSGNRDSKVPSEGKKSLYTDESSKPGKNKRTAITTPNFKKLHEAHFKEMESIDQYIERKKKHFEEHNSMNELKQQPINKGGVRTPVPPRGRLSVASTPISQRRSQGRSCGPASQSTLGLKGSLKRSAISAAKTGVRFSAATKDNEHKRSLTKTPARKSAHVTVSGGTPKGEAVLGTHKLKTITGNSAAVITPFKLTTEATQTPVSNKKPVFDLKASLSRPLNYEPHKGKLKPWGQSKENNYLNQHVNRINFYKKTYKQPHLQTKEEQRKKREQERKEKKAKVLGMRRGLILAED

[4] = target: Yin Yang 1 (YY1), endogenous (human (endogenous in THP-1)) (UniProt P25490)

binding [1]: no binding
binding [2]: binds
Molecule: EGFP-YY1 (from UniProt P25490 1-414)

binding (Flag-NUSAP1): binds
Molecule: HA-YY1 (from UniProt P25490 1-414)

binding (Flag-NUSAP1): no binding
Molecule: YY1^CTD (EGFP-YY1^321–414) (from UniProt P25490 321-414) (domain or fragment)

binding (Flag-NUSAP1): binds
Molecule: YY1^NTD (EGFP-YY1^1–320) (from UniProt P25490 1-320) (domain or fragment)

binding [3]: binds
Molecule: Yin Yang 1 (YY1), endogenous (from UniProt P25490 1-414)

binding [4]: binds
B1: nucleolar and spindle-associated protein 1 (NUSAP1), endogenous (protein, UniProt Q9BXS6 1-441)
chain: MIIPSLEELDSLKYSDLQNLAKSLGLRANLRATKLLKALKGYIKHEARKGNENQDESQTSASSCDETEIQISNQEEAERQPLGHVTKTRRRCKTVRVDPDSQQNHSEIKISNPTEFQNHEKQESQDLRATAKVPSPPDEHQEAENAVSSGNRDSKVPSEGKKSLYTDESSKPGKNKRTAITTPNFKKLHEAHFKEMESIDQYIERKKKHFEEHNSMNELKQQPINKGGVRTPVPPRGRLSVASTPISQRRSQGRSCGPASQSTLGLKGSLKRSAISAAKTGVRFSAATKDNEHKRSLTKTPARKSAHVTVSGGTPKGEAVLGTHKLKTITGNSAAVITPFKLTTEATQTPVSNKKPVFDLKASLSRPLNYEPHKGKLKPWGQSKENNYLNQHVNRINFYKKTYKQPHLQTKEEQRKKREQERKEKKAKVLGMRRGLILAED
